Data as given in PubChem BioAssay AID1259254 (NCATS, 2017).
Purpose: 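Gene knock-downs that lead to re-replication, shown by excess G2 DNA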 (primary screen). Cell system: human HCT116 colorectal cancer cells. Reagents: single siRNA against human genes. Timing: 3 days. Measurement: 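Nuclei stained with Hoechst and imaged; cell-cycle phase assigned by DNA content; G2 share scaled per plate, non-targeting siRNA 0%, GMNN siRNA 100%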. Scale: G2 robust z-score and G2 cells, % of GMNN control: higher = more G2 cells, more excess DNA replication; raw share of cells in G2: higher = larger share of cells with G2 DNA content. Rule for the call: 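Active siRNAs have a G2 robust z of 5 or more median absolute deviations over the median, which in these data means about 38% or higher of GMNN control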.
Here is one part, drawn at random, of about 59,000 reagents tested. About 1,550 of all reagents (2.6%) were called active. 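G2 share is only a proxy for re-replication; each gene was hit by three separate siRNAs, and active genes were retested.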 The raw values are shown without normalisation. A number with no mark means an inactive call. No sequences are given here. Not stated in the record: the amount of reagent.

Target gene	PubChem SID	G2 robust z-score	G2 cells, % of GMNN control	raw share of cells in G2 (%)
ZCCHC3	SID160753208	-0.657	-1.65	2.52
ZCCHC3	SID160753209	0.182	4.25	4.64
ZCCHC3	SID160753210	-0.574	-1.07	3.15
TUBGCP3	SID160728393	0.61	7.26	8.85
TUBGCP3	SID160728394	1.51	13.6	8.25
TUBGCP3	SID160728395	2.42	20	14.4
LRRC30	SID160764190	-1.37	-6.7	1.69
LRRC30	SID160764191	0.0175	3.09	4.61
LRRC30	SID160764192	1.33	12.3	9.15
ZNF516	SID160722736	-0.974	-3.89	3.17
ZNF516	SID160722737	-0.281	0.989	5.58
ZNF516	SID160722738	-0.238	1.29	3.64
HMGN2P24	SID160772824	0.65	7.54	7.06
HMGN2P24	SID160772825	0.363	5.52	5.08
HMGN2P24	SID160772826	-0.652	-1.62	2.58
POLD2	SID160714594	0.863	9.04	8.09
POLD2	SID160714595	0.564	6.93	7.33
POLD2	SID160714597	-0.142	1.97	4.8

Next part; the last 3 above are carried over.
Target gene	PubChem SID	G2 robust z-score	G2 cells, % of GMNN control	raw share of cells in G2 (%)
POLD2	SID160714594	0.863	9.04	8.09
POLD2	SID160714595	0.564	6.93	7.33
POLD2	SID160714597	-0.142	1.97	4.8
RPL11	SID160716043	2.59	21.2	14
RPL11	SID160716044	1.49	13.4	9.52
RPL11	SID160716046	0.913	9.39	6.75
MID1	SID160777250	-1.09	-4.69	1.65
MID1	SID160777251	-0.626	-1.44	4.8
MID1	SID160777252	0.961	9.73	9.33
DNAJC19	SID160732471	1.26	11.9	6.86
DNAJC19	SID160732472	-0.178	1.72	3.2
DNAJC19	SID160757040	0.275	4.9	6.02
CSMD1	SID160747803	-0.721	-2.11	3.66
CSMD1	SID160747804	-0.964	-3.82	2.9
CSMD1	SID160747805	0.0715	3.47	3.61
